Reference: PMC10386454 (Pharmaceutics, 2023)
These are yes or no findings as the source states them, for the method shown. Binding seen in cells or lysates may run through a third protein. Some results given as binding are weak or reduced against the parent protein; the word gives no strength. For part of these data: Where a sequence is shown, tags or fusion partners need not be part of it.

The chains behind the UniProt entries cited, without tags or fusion partners. Where a name states a change or a piece, a line headed by the entry shows the natural chain unless it says otherwise.
UniProt P48039: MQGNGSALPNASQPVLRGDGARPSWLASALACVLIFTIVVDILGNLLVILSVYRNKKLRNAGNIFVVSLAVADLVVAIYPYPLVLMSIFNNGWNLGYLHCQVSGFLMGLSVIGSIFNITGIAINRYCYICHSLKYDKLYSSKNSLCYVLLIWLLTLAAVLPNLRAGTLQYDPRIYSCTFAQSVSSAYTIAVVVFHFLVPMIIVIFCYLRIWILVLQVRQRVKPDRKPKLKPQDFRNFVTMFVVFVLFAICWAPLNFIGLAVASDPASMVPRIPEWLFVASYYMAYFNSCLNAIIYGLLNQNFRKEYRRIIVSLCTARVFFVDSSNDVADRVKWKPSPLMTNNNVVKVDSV
UniProt P32121: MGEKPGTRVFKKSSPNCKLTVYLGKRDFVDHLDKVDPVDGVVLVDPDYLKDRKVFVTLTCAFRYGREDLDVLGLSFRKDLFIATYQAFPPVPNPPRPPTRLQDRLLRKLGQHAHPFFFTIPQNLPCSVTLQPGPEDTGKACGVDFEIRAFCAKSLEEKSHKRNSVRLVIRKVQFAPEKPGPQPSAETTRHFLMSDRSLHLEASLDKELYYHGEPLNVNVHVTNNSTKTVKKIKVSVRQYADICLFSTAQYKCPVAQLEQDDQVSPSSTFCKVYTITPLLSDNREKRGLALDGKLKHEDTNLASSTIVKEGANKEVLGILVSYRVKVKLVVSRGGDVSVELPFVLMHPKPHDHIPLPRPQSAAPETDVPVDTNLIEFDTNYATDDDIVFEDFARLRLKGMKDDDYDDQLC

Columns and labels:
[1] = molecular target: human MT1 receptor fused at its C-terminal part with the small enzyme fragment ProLink tag (human) (UniProt P48039); assay: split reporter; PathHunter β-galactosidase complementation in HEK 293 cells; β-arrestin2 fused to the β-gal acceptor, receptor fused to ProLink; cells stimulated with a saturating or increasing concentration of melatonin or plant extracts for 2-3 h at 37 °C 5% CO2; luminescence read after 60 min at room …
[2] = molecular target: T1, human MT2 receptor fused at its C-terminal part with the small enzyme fragment ProLink tag (human) (UniProt P49286); assay: as above
T1 sequence: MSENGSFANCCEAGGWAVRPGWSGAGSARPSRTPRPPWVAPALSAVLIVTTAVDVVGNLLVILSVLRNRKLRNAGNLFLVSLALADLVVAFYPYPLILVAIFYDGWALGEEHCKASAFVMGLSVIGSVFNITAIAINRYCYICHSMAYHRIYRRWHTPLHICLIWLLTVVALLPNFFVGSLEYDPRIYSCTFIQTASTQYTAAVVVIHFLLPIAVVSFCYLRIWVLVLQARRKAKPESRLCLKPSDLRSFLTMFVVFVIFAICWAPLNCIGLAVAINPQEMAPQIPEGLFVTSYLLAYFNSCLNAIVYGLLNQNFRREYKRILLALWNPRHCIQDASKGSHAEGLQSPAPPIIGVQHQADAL

[3] = molecular target: Rluc-MT1 receptor (human) (UniProt P48039); assay: FRET or BRET; BRET in HEK293T cells between Rluc-MT1 and YFP-tagged β-arrestin-2; PBS with calcium and magnesium, room temperature, coelenterazine h 5 µM; stimulated with melatonin or extract; net BRET after subtracting cells that express Rluc-MT1 only

binding [1]	binding [2]	binding [3]	Substance
binds	binds	–	fusion protein of β-arrestin2 and the larger N-terminal deletion mutant of β-gal (from UniProt P32121 1-409)
–	–	binds	YFP-tagged β-arrestin-2 (from UniProt P32121 1-409)
